# Experimental data published in PubChem BioAssay AID2685 (National Center for Advancing Translational Sciences (NCATS), 2010).
# About 2,100 (0.66%) of roughly 320,000 compounds were called active. The shares of active, inactive and inconclusive entries below differ from those in the screen. The call rests on the fitted dose curve; in most records, active means well fitted inhibition curve with a large enough effect in the signal ratio, with a control signal flat (not every such curve was filed as active); inconclusive means small, poorly fitted or top-dose-only effect, or effect the other way, or a change in a side signal; inactive means flat fitted curve, though single readings scatter; the % refers to the signal ratio. Potencies beside an inconclusive call are fits to weak or partial responses and may not hold up.
# Experiment: qHTS Assay for Lipid Storage Modulators in Drosophila S3 Cells
# Conditions: BODIPY lipid droplet fluorescence, 18-24 h, cells fed with added oleic acid; lipid storage change, negative = inhibition: at 46.1 µM (top of the series) unless noted
# Outline: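 Drosophila S3 cells got compounds at several concentrations plus oleic acid (400 uM solution). Laser-scanning cytometry with 488 nm excitation read lipid droplets at 500-530 nm and cells at 575-640 nm. Percent activity was relative to 20 uM Triacsin C.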
# On the % scale 0 is the no-effect control and ±100 the full control effect; potency means the concentration at half of the fitted maximal effect.
SMILES,"lipid storage change, negative = inhibition",Potency,outcome
CN(C)c1cccc(O)c1,inconclusive: -8.99%,,
CCc1ccc(-c2cc(C)no2)cc1S(=O)(=O)N1CCN(c2ccc(C(C)=O)cc2)CC1,,"inconclusive: 29.1 µM [falling, single point]",
Cc1nn(C)c(Nc2ccc(Br)cc2)c1Br,inconclusive: -42%,,
COc1ccc(/C(O)=C/C(=O)C(=O)NNC(=O)c2ccccc2)cc1,inconclusive: 5.71%,,
COC(=O)C(C)Oc1ccc(-c2nccc(-c3ccccn3)n2)cc1 (stereo unspecified),inconclusive: 12.2%,,
NC(=O)Cn1cc(/C=N\NS(=O)(=O)c2ccc(Cl)cc2)c2ccccc21,inconclusive: 21.5%,,
CC(=O)Nc1ccc(C(=O)OCC(=O)N2CCCC2)cc1,,"inconclusive: 9.2 µM [activator, partial curve]",
CC1CC(C)(C)NC(=S)N1CC(=O)NCc1ccccc1Cl (stereo unspecified),inconclusive: -23.7%,,
COc1ccc(CNC(=O)C(C)c2ccc([N+](=O)[O-])cc2)cc1 (stereo unspecified),inconclusive: -7.22%,,
Cn1c(=O)c([N+](=O)[O-])c(-n2ccnc2)c2ccccc21,,"inconclusive: 4.61 µM [cytotoxic, full curve]",
CCOC(=O)C(C)n1cnc2scc(-c3ccc(C)cc3)c2c1=O (stereo unspecified),inconclusive: -17.2%,,
CC(C)c1ccc(S(=O)(=O)N2CCN(C(=O)C3CC3C)CC2)cc1 (stereo unspecified),inactive: 9.88% [at 0.0737 µM],,
CC(=O)c1ccc(S(=O)(=O)N2CCN(S(=O)(=O)c3ccccc3C(F)(F)F)CC2)cc1,inconclusive: 12%,,
O=C(CN1CCCCC1)Nc1scc2c1c(=O)oc1ccccc12,inconclusive: 3.71%,,
COc1cc(NC(=S)NC2CC(C)(C)NC(C)(C)C2)c(OC)cc1Cl,inconclusive: 4.86% [at 9.22 µM],,
NC(=O)NCCCC(=O)OCC(=O)c1ccc2ccccc2c1,inconclusive: -11.5%,,
N#CC1=C(Nc2ccccc2)SC=C(c2ccc(F)cc2)N=C1N1CCOCC1,inconclusive: 1.01%,,
COc1ccc(Cl)cc1N(C(=O)c1ccco1)C(C(=O)NC1CCCC1)c1ccncc1 (stereo unspecified),,"inconclusive: 2.31 µM [falling, single point]",
COc1cc2c(cc1NC(=O)CN1CCN(S(=O)(=O)c3ccccc3F)CC1)oc1ccccc12,inconclusive: 3.68%,,
CC1=C/C(=N\N=C2\NC(=O)C(CC(=O)Nc3ccccc3)S2)CC(C)(C)C1 (stereo unspecified),inconclusive: -6.55%,,
Cc1ccc(NC(=O)C/C(N)=N/OC(=O)Nc2cccc(Cl)c2)cc1,inconclusive: 9.45%,,

SMILES,"lipid storage change, negative = inhibition",Potency,outcome
CN(CC(=O)NCc1ccc(F)cc1)S(=O)(=O)c1ccc2c(c1)c(=O)n(C)c(=O)n2C,,,inactive [at 46.1 µM]
COc1ccc(C(=O)COC(=O)C2CCN(c3ccc(C(F)(F)F)cn3)CC2)c(OC)c1,inconclusive,,
CCO/C=C1\C(=O)N(c2ccc(OCC)cc2)C(=O)c2ccccc21,inconclusive: 10.6%,,
CCOc1ccc(CNC(=O)CCCn2ccc3cc(S(=O)(=O)N4CCCC4)ccc32)cc1,,"inconclusive: 10.3 µM [falling, partial curve, poor fit]",
CCN1C(=O)[C@H]2[C@@H](c3ccc(OC)cc3)N3C(=O)CN(CCOC)C(=O)[C@@]3(Cc3ccccc3)[C@H]2C1=O,,"inconclusive: 0.13 µM [activator, full curve, poor fit]",
O=C(N/N=C/C=C/c1ccccc1)c1cc(C2CC2)[nH]n1,inconclusive: 3.93%,,
COc1cccc(/C=N/NC(=O)c2cnccn2)c1O,inconclusive: -23.8%,,
CCNc1nc(CC)nc2c1oc1ccccc12,inconclusive: 35.8%,,
CCN(c1ccc(C)c(C)c1)S(=O)(=O)c1c(C)[nH]c(=O)[nH]c1=O,inconclusive: -106%,,
COc1ccc(C(=O)C2CCCN(C(=O)C3=CCCC3)C2)c(C)c1 (stereo unspecified),inconclusive: -19.2%,,
CCOc1ncccc1C(=O)OCc1cc(=O)oc2c(C)c(C)ccc12,inconclusive: -7.14%,,
Cc1cc(C(=O)COC(=O)C2=NNC(=O)CC2)c(C)n1-c1ccccc1,inconclusive: -142%,,
O=C(NCC1CCCO1)C1CCCN1C(=O)Nc1ccccc1[N+](=O)[O-] (stereo unspecified),,"inconclusive: 29.1 µM [activator, single point]",
CCn1c(SCC(=O)NC2CCCC2)nnc1-c1ccoc1C,inconclusive: 16.1%,,
COC(=O)Cn1c(=O)c2c(nc3n2CCCN3Cc2ccccc2)n(C)c1=O,inconclusive: 31.3%,,
Cc1noc(C)c1COc1ccc(C(=O)N2CCN(c3cccc(Cl)c3)CC2)cc1,inconclusive,,
CC1=NNC(=O)C1CC(=O)N/N=C/c1ccc(C)o1 (stereo unspecified),,"inconclusive: 4.61 µM [activator, full curve, poor fit]",
CC(=O)c1cccc(NC(=O)c2ccccc2OCc2ccc(F)cc2)c1,inactive: -11.7%,,
O=C(CN1CC(c2ccccc2)CC1=O)Nc1ccc2c(c1)OCO2 (stereo unspecified),inconclusive: 26.5%,,
O=C(CCCc1ccccc1)c1ccccc1,,"inconclusive: 29.1 µM [activator, partial curve]",
CSc1nc(C)cc(OCC#N)n1,inconclusive: 15.2%,,

SMILES,"lipid storage change, negative = inhibition",Potency,outcome
OC(CNCC#Cc1ccccc1)c1ccccc1 (stereo unspecified),inconclusive: -42.8% [at 0.00295 µM],,
O=C(NCCc1ccccc1)c1ccccc1NC(=O)C1CCCO1 (stereo unspecified),inconclusive: 88.5%,,
CCOC(=O)c1c(N)c(C#N)c2n1CCCCC2,inconclusive: -11.1%,,
COc1ccc(C)cc1NC(=O)C1CCCN1S(=O)(=O)c1ccccc1F (stereo unspecified),inconclusive: -74%,,
COc1ccc(-c2cn3cccnc3n2)cc1Br,,"inconclusive: 2.91 µM [activator, partial curve]",
O=C1c2ccccc2NC(c2ccc(O)cc2)N1c1ccccc1 (stereo unspecified),inconclusive: -55.3%,,
CCOCCCNC(=O)C(NC(=O)c1ccccc1O)c1ccc(Cl)cc1 (stereo unspecified),inconclusive: 0.946%,,
O=C(CSC1CN(C(c2ccccc2)c2ccccc2)C1)N/N=C/c1ccc(Cl)cc1Cl,inconclusive: 10.4%,,
NC(=O)c1ccc(-c2nnc(Nc3ccc(S(N)(=O)=O)cc3)c3ccccc23)cc1,inconclusive: -17.3%,,
Cc1ccc(-c2noc(CSc3nnnn3-c3ccccc3)n2)cc1,inconclusive: -10.4%,,
CCOC(=O)CC(NC(=O)Cc1cccs1)c1ccccc1Cl (stereo unspecified),inconclusive: 20.6%,,
CCN(CC)c1ccc(NC(=O)CCN2C(=O)c3ccccc3S2(=O)=O)c(C)c1,inconclusive,,
O=C1CN(c2ccccc2)C(=S)N1C(=O)c1ccccc1,inconclusive: 19.6%,,
CCn1c(Cc2ccccc2)nnc1SC(C)C(=O)NC1CC1 (stereo unspecified),inconclusive: 7.42%,,
c1ccc(-c2ccc3nnnn3n2)cc1,inconclusive: -5.23%,,
CCCCC(=O)Nc1cccc(-c2cn3ccccc3n2)c1,,"inconclusive: 7.31 µM [falling, partial curve]",
Nc1nonc1C(=O)N1CCCCC1,inconclusive: 6.25%,,
O=C1NC(=O)/C(=C/c2cccc3ccccc23)S1,,"inconclusive: 29.1 µM [activator, single point]",
CN1c2ccccc2C(O)=C(C(=S)Nc2ccccc2)S1(=O)=O,inconclusive: -19.5%,,
Cc1ccc(C2C(/C=C3/SC(=S)NC3=O)=C(c3cccs3)Oc3ccccc32)cc1 (stereo unspecified),inconclusive: -21%,,
CN(CC(=O)NCc1ccc(Cl)cc1)S(=O)(=O)c1cccs1,,"inconclusive: 5.8 µM [activator, full curve]",

# Look-ups from the entries so far.
# Potency, COc1ccc(Cl)cc1N(C(=O)c1ccco1)C(C(=O)NC1CCCC1)c1ccncc1 (stereo unspecified) is entered as inconclusive: 2.31 µM [falling, single point]
# lipid storage change, negative = inhibition, COc1cc(NC(=S)NC2CC(C)(C)NC(C)(C)C2)c(OC)cc1Cl is entered as inconclusive: 4.86% [at 9.22 µM]
# lipid storage change, negative = inhibition, c1ccc(-c2ccc3nnnn3n2)cc1 is entered as inconclusive: -5.23%
# Potency, COc1ccc(-c2cn3cccnc3n2)cc1Br is entered as inconclusive: 2.91 µM [activator, partial curve]

# The list continues.

SMILES,"lipid storage change, negative = inhibition",Potency,outcome
CCNC(=S)N1CCN(C(=O)c2ccco2)CC1,inconclusive: 21.2%,,
CC(=O)N1CCN(c2ccc(NC(=O)C(C)Oc3ccc(Cl)cc3Cl)cc2)CC1 (stereo unspecified),inconclusive: -7.48%,,
N#CCc1nn2c3c(cnc2c1C#N)C(=O)CCC3,inconclusive: -38.5% [at 0.00295 µM],,
CSc1ccc(-c2nnn(Cc3ccc(C)cc3)n2)cc1,,"inconclusive: 9.2 µM [rising, partial curve]",
CC(C)(C)c1cc[n+](/C(C(=S)NC2CC2)=C(/[O-])c2ccc(Cl)s2)cc1,,"inconclusive: 6.51 µM [falling, single point]",
O=C(Cn1nnc(-c2ccccc2)n1)NNC(=O)c1ccco1,inconclusive: 35.6%,,
CC(=O)N1[C@H](C)C=C[C@]1(Cc1ccccc1)C(=O)O,inconclusive: -5.52%,,
Cc1ccc(Oc2nnc(-c3cccs3)c3ccccc23)cc1,inconclusive: 2.54%,,
COc1ccc(-n2c(Cc3cccn3C)nnc2SCC(=O)Nc2cc(Cl)ccc2OC)cc1,,"inconclusive: 14.6 µM [falling, partial curve]",
CC(=O)c1cc2c(cc1NS(=O)(=O)c1ccc(F)cc1)OCO2,inconclusive: 3.82%,,
O=c1nc2ccc(Cl)cn2c2ccc(S(=O)(=O)N3CCCCC3)cc12,inconclusive: -18.8%,,
COc1ccc(-c2c(C)nn3c(NC4CCCC4)cc(C)nc23)cc1OC,,"inconclusive: 20.6 µM [falling, single point]",
COC(=O)c1nn(-c2ccccc2)c(Cl)c1/C=N/OC(=O)c1ccc(Cl)c(Cl)c1,inconclusive: 12.4%,,
Cc1cc(F)ccc1S(=O)(=O)Nc1ccccc1C(=O)NCc1cccnc1,inconclusive: 53.8%,,
Cc1[nH]n(-c2nc(-c3cccc([N+](=O)[O-])c3)cs2)c(=O)c1C,inconclusive: 11.3%,,
c1csc(-c2nnsc2-c2nc3ccccc3[nH]2)c1,inconclusive: 52.6%,,
Cc1cc(C)n(CC(=O)NC2CCCCC2)n1,inconclusive: -68.9%,,
Nc1nc(NC(=O)CCCC(=O)O)nn1-c1ccccc1,,"inconclusive: 29.1 µM [falling, single point]",
